# According to the supplement of paper PMC10338343:
# ± gives the standard deviation. Only a part is listed here, and it is no random draw. Many of these values have a large error.
# System: MIWI (PIWIL1) piRISC loaded with Kctd7 piRNA (30 nt)
# Experiment: pre-steady-state target cleavage rate (min^-1); MIWI and MILI are mouse PIWI proteins and EfPiwi is from a freshwater sponge; tags in brackets are library labels; higher = faster piRNA-guided slicing of the target
# Conditions: guide: Kctd7 piRNA 5'p-UGUUAAUCUCUCAGAGAAGGUGACAGUGAU; auxiliary factor: 500 nM mouse GTSF1
# Procedure, shortened: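 The pre-steady-state cleavage rate was derived from a burst-and-steady-state fit of Cleave-'n-Seq data. For these assays, 1 nM active affinity-purified piRISC loaded with a single synthetic guide was mixed with […] a transcribed, DNA-blocked target RNA library in HEPES–potassium acetate buffer at 33 °C, with or without 500 nM GTSF1 partner protein, for 0–8 or 0–960 min. Sequencing counts of uncleaved targets were normalised to depth and to weakly complementary targets, and k3 was capped at 0.0001 min^-1 after three trials were pooled.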
# 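Further: 1 nM active piRISC with 0.1 nM target library at 33 °C single turnover.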
row,Sequence,pre-steady-state target cleavage rate
1,AUCACUGUUCACCUUCUCUGAGAGAUUAACA,0.79 ± 0.046
2,UAGUGACAGACCUUCUCUGAGAGUAUAAGA,0.000105 ± 0.055
3,UAGUGACAGACCUUCUCUGAGAGAUAUAGA,0.00215 ± 0.0044
4,AUCACGUCACCUUCUCUGAGAGAUUAACA,0.732 ± 0.041
5,UAGUGACAGUGGAAGAGAGACAGAAUAACA,0.000177 ± 0.035
6,UAGUGAGUCUGGUUCUCUGAGAGAUUAAGA,0.000264 ± 0.014
7,UAGUGACAGUGGAUCUCUGGGAGAUUAACA,0.000154 ± 0.018
8,UAGUCUGUCACCUUGACUGAGAGAUAUUGA,0.000689 ± 0.0095
9,UUCCUGUCACCUUCUCUGAGAGAUUAACA,0.633 ± 0.037
10,AUCACUGUCACCGUCUCUGAGAGAUUAACA,0.608 ± 0.038
11,UAGUGACACACCUUCUCUGAGUGAUAUUGA,0.00025 ± 0.026
12,UAGUGACAGUCCUACACUGAGAGAUUAACA,0.000552 ± 0.01
13,UAGUGACUCACCAAGUCUGAGAGAUUAUGA,0.000124 ± 0.039
14,UAGUGACUCACCAUCUCUGAGAGAUAUUGA,0.00136 ± 0.0047
15,UUCACUGUCACCUUCUCACUGAGAUUAUGA,0.0029 ± 0.0048
16,UAGACUGUCACCUUCUCUCUGAGAUUAAGA,0.00246 ± 0.0032
17,UAGUGACAGACCUUCUCUGAGAGAAUAUGA,0.000996 ± 0.009
18,UAGUGACACACCUUCUCUCUGAGAUUAUGA,0.000767 ± 0.013
19,UAGUGUGUCAGCUUCUCUGAGAGAUAUUGA,0.00303 ± 0.0041
20,UAGUGACAGUGCAUCUCUGAGAGAUUUACA,0.000311 ± 0.018
21,UAGACUGAGACCUUCUCUGAGAGAUUUUGA,0.0025 ± 0.003
22,UAGUGACAGACCUACUCUGACAGAUUAACA,0.00139 ± 0.0068
23,UAGUCUGUCACCUUCUGAGAGAGAUAUUGA,0.00166 ± 0.0068

row,Sequence,pre-steady-state target cleavage rate
1,UAGUGACUCACCUUCCUGAGAGAUUAACA,0.00331 ± 0.0042
2,UAGUCUGUCACCUUCUCUGUCAGAUAUUGA,0.00355 ± 0.0047
3,UAGUGACAGUGGAAGAGUGAGUGAAUAACA,0.000216 ± 0.018
4,UACACUGUCACCUUGCUCUGAGAGAUUAACA,1.01 ± 0.17
5,UAGUGACAGACCUUCUCUGAUGAGAUUAACA,0.000945 ± 0.012
6,UAGUCUGUCUGGUUCUCUGAGAGAUUAAGA,0.00108 ± 0.0055
7,UAGUGACUGCACCUUCUCUGAGAGAUUAACA,0.77 ± 0.05
8,UAGUGACAGUGGAAGAGUGAGAGUUUUACA,0.000279 ± 0.026
9,UAGUGACAGUGCUUCUCUGAGUGUUUAACA,0.000137 ± 0.021
10,UAGUGACAGUCCUUCUCAGACAGAUUAACA,0.00145 ± 0.0049
11,UAGUGACAGAGCUUCUCUGAGAGAUUUUGA,0.000321 ± 0.018
12,UAGUGACAGUCCUUCUCUCUCUCUAAUUGA [g13:g20:cont:t1A],0.000163 ± 0.03
13,UAGUGACAGUCGUUCUCUGAGAGUUUAACA,0.000859 ± 0.012
14,UAGUCUGAGUCCUUCUCUGAGAGAUAUUGA,0.00122 ± 0.0049
15,UAGUGACAGUCCUUCACUGAGAGAUUAAGA,0.00122 ± 0.0069
16,UACACUGUACACCUUCUCUGAGAGAUUAACA,0.623 ± 0.03
17,UAGUGACUCAGGUUCUCUGAGAGAUUAACA,0.00154 ± 0.0039
18,UAGUGACAGUGGUUAUCUGAGAGAUUAACA,0.000185 ± 0.03
19,UUCACUGUCACGUUCUCUGAGAGAUAUUGA,0.00298 ± 0.0037
20,UAGUGACUCACCUUCUUCUGAGAGAUUAACA,0.00337 ± 0.0044
21,UAGUGACAGUGGAAGAGAGAGUGAAUAACA,0.000316 ± 0.014
22,UAGACUGUCACCUUCUCUGUCUCUAAUUGA [g12:g27:cont:t1A],0.000315 ± 0.012
23,UAGUGACAGUCCUUCUCUCAGAGAUUAAGA,0.000811 ± 0.008

# Part of the list above, bar-delimited:
row | Sequence | pre-steady-state target cleavage rate
2 | UAGUCUGUCACCUUCUCUGUCAGAUAUUGA | 0.00355 ± 0.0047
3 | UAGUGACAGUGGAAGAGUGAGUGAAUAACA | 0.000216 ± 0.018
4 | UACACUGUCACCUUGCUCUGAGAGAUUAACA | 1.01 ± 0.17
5 | UAGUGACAGACCUUCUCUGAUGAGAUUAACA | 0.000945 ± 0.012
6 | UAGUCUGUCUGGUUCUCUGAGAGAUUAAGA | 0.00108 ± 0.0055
7 | UAGUGACUGCACCUUCUCUGAGAGAUUAACA | 0.77 ± 0.05
8 | UAGUGACAGUGGAAGAGUGAGAGUUUUACA | 0.000279 ± 0.026

# Next part.

row,Sequence,pre-steady-state target cleavage rate
1,UAGACUGUCACCUUCUCUCUGAGAUAUUGA,0.000409 ± 0.0084
2,UACACUGUCACCAUUCUCUGAGAGAUUAACA,0.674 ± 0.035
3,UAGUGACAGUCCUUCUCUCAGAGAUUUACA,0.00153 ± 0.0053
4,UAGUGACAGUCCAUCUCUCAGAGAUUAACA,0.00113 ± 0.0071
5,UUCUCUGUCACCAUCUCUGAGAGAUUAACA,0.514 ± 0.023
6,UACACUCGUCACCUUCUCUGAGAGAUUAACA,0.77 ± 0.035
7,UAGUGACAGUCCUUCUCUGGAGAUUAACA,0.00118 ± 0.0053
8,UAGUGACAGUGGAUCUCUGAGGGAUUAACA,0.000358 ± 0.012
9,UACACUGGUCACCUUCUCUGAGAGAUUAACA,0.676 ± 0.038
10,UAGUGACAGACCUUCACUGAGAGAUUUUGA,0.0022 ± 0.0057
11,UAGUGACAGUGGAAGAGACACAGAUUAUCA,0.000403 ± 0.02
12,UAGUGACAGUCCUUCUCUGAUGAGAUUAACA,0.000188 ± 0.011
13,UAGUGACAGACCUCUCUGAGAGAUUAACA,0.0034 ± 0.0036
14,AUCACUGUCACCUUCUCUGACUCAUUAUGA,0.00142 ± 0.0058
15,UAGUGAGUCACCUUCUGUCAGAGAUUAACA,0.00937 ± 0.0041
16,UAGUGACAGUCCUUGUGUGAGAGAUUAACA,0.000594 ± 0.015
17,UAGUGACUCACCUUCUUGAGAGAUUAACA,0.000852 ± 0.0098
18,UAGUCUGUCACCUUCUCACUCUCUAAUUGA [g14:g26:cont:t1A],0.00094 ± 0.009
19,UAGUGACAGUGCUUCUGUGAGAGAAUAACA,0.0021 ± 0.0056
20,UAGUGACUCACCUUCAGAGAGAGAUAUUGA,0.000375 ± 0.022
21,UAGUGAGUCACCUUCAGAGAGAGAUUAUGA,0.0015 ± 0.0099
22,UAGUCUGUCACCUUCUGAGAGAGAUUAUGA,0.00348 ± 0.0046
23,UAGUGACAGACCUUCUCUGAGAGAAAAAGA,0.000426 ± 0.018

row,Sequence,pre-steady-state target cleavage rate
1,UUCACUGUCACCUUCUCUGAGACUAUAAGA,0.00175 ± 0.0042
2,UAGUGACUCACCUUCUCUCUCAGAUUAACA,0.000441 ± 0.014
3,AUACUGUCACCUUCUCUGAGAGAUUAACA,0.756 ± 0.043
4,UAGUGUGUCACCUUGAGUGAGAGAUUUUGA,0.00119 ± 0.0095
5,UUCACUGUCACCUUCUCUGACUCAUUAAGA,0.00222 ± 0.0036
6,UAGUGAGAGACCUUCUCUGAGAGAUAUUGA,0.0031 ± 0.0047
7,UAGUGACAGUCCUUCUCAGAGACAUUAACA,0.00301 ± 0.0033
8,UACACUGUCACCUUCUCUGUCUGAUUUUGA,0.00432 ± 0.0066
9,UAGUGACAGUGCUUCUCUGAGAGAUGAACA,0.00101 ± 0.0037
10,UAGUGUGUCACCUUCUCUGAGUCAUUUUGA,0.00226 ± 0.005
11,UAGUGACACACCUUCUCUGACUCAUUAAGA,0.000302 ± 0.0086
12,UAGUGACAGUGGAAGACAGACAGAUUAACA,0.000254 ± 0.023
13,UUCACUGUCACUUUCUCUGAGAGAUUAACA,0.691 ± 0.026
14,UUCACUGUCACCUUCUCUCUCUCUAAUUGA [g13:g29:cont:t1A],0.00292 ± 0.0046
15,UAGACUGUCACCUUCUCUGACAGAUUUUGA,0.0004 ± 0.012
16,UAGUGACAGUCCUUCUCUGACUCAUUAACA,0.000149 ± 0.021
17,UAGUGACAGUCCUUCUCUGAGUCAUUAACA,0.000476 ± 0.01
18,UAGUGACAGUGGAACUCUGAGCAGAUUAACA,0.00398 ± 0.0068
19,UAGACUGUCAGCUUCUCUGAGAGAUAUUGA,0.000414 ± 0.013
20,UAGUGACACACCUUCUCUGAGACAUUUUGA,0.000326 ± 0.019
21,UAGUGACAGUGGAUCUCUGAGAGAUUGACA,0.000421 ± 0.015
